# Assay results from PubChem BioAssay AID493014 (National Center for Advancing Translational Sciences (NCATS), 2011).
# In all, about 340,000 compounds went through this assay and about 170 (0.05%) were called active. Inconclusive means that the source gave no clear call. Such entries were picked first, then a sample of the others. The call rests on the fitted dose curve; in most records, active means well fitted inhibition curve with a large enough effect in the signal ratio, with a control signal flat (not every such curve was filed as active); inconclusive means small, poorly fitted or top-dose-only effect, or effect the other way, or a change in a side signal; inactive means flat fitted curve, though single readings scatter; the % refers to the signal ratio. A potency beside an inconclusive call is a rough fit, not a confirmed value.
# Experiment: qHTS Assay to Find Inhibitors of Chronic Active B-Cell Receptor Signaling;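 on activity change, negative = inhibition: plate controls were basal doxycycline-induced cells for no effect and cells given 10 µM MG132 for full effect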
# Conditions: ABC-DLBCL IkBa-CBG/CBR reporter, luminescence ratio (green luciferase fused to IkBa over red control in TMD8 lymphoma cells), 4 h; activity change, negative = inhibition: at 46.1 µM (top of the series)
# In short: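 Compounds up to 46 uM were incubated four hours with TMD8 cells whose green CBG68 luciferase is fused to IkappaBalpha; red CBR luminescence normalised the signal, and concentration-effect curves were fitted to fusion, red and ratio data.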
# Potency means the concentration at half of the fitted maximal effect.
SMILES,"activity change, negative = inhibition",Potency
O=C(N/N=C/c1ccc(O)c(O)c1O)/C(=C/c1ccc([N+](=O)[O-])cc1)NC(=O)c1ccccc1,inconclusive: 4.33%,
CCc1ccccc1NC(=O)c1cc(S(=O)(=O)N2CCc3ccccc32)ccc1F,inconclusive: -4.81%,
Cc1ccc(C2=NS(=O)(=O)N(C)C(C(=O)NC(C)c3ccccc3)=C2)cc1 (stereo not given),inactive: 16.8%,
Cc1ccc(Cl)cc1NC(=O)C1COc2ccccc2O1 (stereo not given),inconclusive: 11%,
Cc1cc(SCC(=O)NCC(c2cccs2)N2CCOCC2)c(C)cc1Br (stereo not given),inconclusive: -7%,
Cn1c(=O)c2c(nc(CN3CCN(C(=O)c4ccco4)CC3)n2CC(=O)C(C)(C)C)n(C)c1=O,inconclusive: 1.89%,
CNc1ccc(Br)cc(C(=O)/C=C/c2ccc(OC)cc2OC)c1=O,inactive: -22.7%,
Cc1cccc(N2CCN(C(=O)c3cccs3)CC2)c1C,,"inconclusive: 35.5 µM [falling, partial curve, poor fit]"
CCc1ccc(C(=O)NC2CCCCC2)s1,,"inconclusive: 17.8 µM [falling, partial curve]"
COC(=O)CCC(=O)NC(=S)Nc1ccc(S(=O)(=O)Nc2cc(OC)nc(OC)n2)cc1,inactive: -0.362%,
CC(=O)c1sc(NC(=O)CS(=O)(=O)c2ccc(F)cc2)nc1C,,"inconclusive: 29.1 µM [falling, single point]"
COc1ccc(CNC(=O)COC(=O)CN2C(=O)NC3(CCCC3)C2=O)cc1,inactive: 1.41%,
Cc1cc(Cl)ccc1NC(=S)NCC(C)C,inconclusive: 13%,
COCCNC(=O)C(OC(=O)C1=Cc2ccccc2OC1)C(C)C (stereo not given),inconclusive: 13.1%,
CCOC(=O)c1sc(NC(=O)Cc2ccccc2OC)nc1C,inconclusive: -13.6%,
O=C(N/N=C/c1ccc(N2CCOCC2)cc1)c1ccccc1NS(=O)(=O)c1cccs1,inconclusive: -1.45%,
Cn1nc(-c2ccccn2)nc2c(=O)n(C)c(=O)nc1-2,,"inconclusive: 3.16 µM [falling, partial curve]"
COC(=O)CSc1nc(SCc2ccccc2Cl)nc2c1CCCC2,,"inconclusive: 3.66 µM [falling, full curve]"
CNC(=O)c1cc(S(=O)(=O)Nc2ccc(C)cc2C)ccc1C,inconclusive: 6.79%,
COc1cc(N2CCCC2)c(OC)cc1/C=C(/C#N)c1ccc(Br)cc1,inactive: 15.2%,
Cc1ccc(NC(=O)C2(NC(=O)c3cccc(N4C(=O)CSC4c4ccccc4)c3)CCCCC2)cc1 (stereo not given),inconclusive: 12.3%,
COC(=O)C1=C(C(=O)OC)[C@@H]2N(Cc3ccccc3)c3ccccc3[C@@]23C[C@@H](C(=O)OC)N(C(=O)c2cccs2)C3=N1,inconclusive: 0.492%,
C=CCOc1ccc(-c2n[nH]c(=S)o2)cc1,inconclusive: 6.38%,
Cc1ccc(NC(=O)C(=O)NN)cc1,,"inconclusive: 11.2 µM [falling, partial curve, poor fit]"
O=C(Nc1nnc(-c2ccc(Cl)cc2)o1)c1ccccc1Br,,"inconclusive: 18.4 µM [falling, partial curve]"
O=C(Cn1c(SCC(=O)NC2CCCC2)nnc1-c1ccncc1)Nc1ccc2c(c1)OCO2,inconclusive: -0.228%,
CC1CN(Cc2nc3c(c(=O)n(C)c(=O)n3C)n2Cc2ccccc2)CC(C)O1 (stereo not given),inconclusive: 1.14%,

SMILES,"activity change, negative = inhibition",Potency
Cc1cccc(C(=O)NCCNC(=O)c2cnccn2)c1,inconclusive: -9.75%,
CCOc1ccc(-c2nc(C)c(C(C)=O)n2O)cc1,,"inconclusive: 4.11 µM [rising, full curve]"
Cc1nc2nc(CCc3ccccc3)nn2c(C)c1Cl,,"inconclusive: 25.1 µM [falling, single point]"
CCOC(=O)C1CCCN(C(=O)c2cc3cc(Br)ccc3oc2=O)C1 (stereo not given),inactive: 0.968%,
Cc1ccc2nc(-c3cccc(SC4CCCCC4)c3)c(NCc3ccccc3)n2c1,inactive: 1.43%,
Cc1ccc(C)c(N(CC(=O)NCc2ccc3c(c2)OCO3)C(=O)CCC(=O)Nc2ccccn2)c1,inconclusive: -5.98%,
CN(C)CCSc1nc(O)c(-c2ccccc2)c(=O)n1-c1ccccc1,inactive: 1.02%,
O=C(Nc1cccnc1Cl)c1cc2c(s1)-c1ccccc1OC2,,"inconclusive: 12.6 µM [falling, partial curve]"
COc1ccc(CNC(=O)C(=O)NCCCn2ccnc2)cc1,,"inconclusive: 20 µM [falling, partial curve, poor fit]"
S=C1Cc2ccccc2N1,inconclusive: 11.4%,
COc1ccc(C2=NN(C(=O)c3ccccc3C(=O)O)C(c3ccccc3O)C2)cc1 (stereo not given),inconclusive: -18.7%,
CCN(CC)c1ccc(S(=O)(=O)N2CCOCC2)cc1NC(=O)CN1C(=O)NC2(CCCC2)C1=O,inactive: 1.08%,
O=C1CCC/C=C\C[C@@H](CC(=O)N(CCO)Cc2ccccc2)C(=O)N[C@H](Cc2c[nH]c3ccccc23)CO1,inactive: -3.7%,
O=C(COC(=O)Cc1c(F)cccc1Cl)NC1CCS(=O)(=O)C1 (stereo not given),inactive: 1.12%,
CC1=C(C(N)=O)C(c2cccnc2)n2nc(-c3cccc(C)c3)nc2N1 (stereo not given),inactive: 0.573%,
CC(C)C(=O)OCC(=O)Nc1ccc2c(c1)CCC2,inconclusive: 19.9%,
S=c1nc(COc2ccccc2)[nH]c2ccccc12,,"inconclusive: 35.5 µM [falling, single point]"
Cc1ccc(-c2cc(N)n(-c3ccc(C)cc3)n2)cc1,inconclusive: -10.7%,"inconclusive: 10 µM [falling, partial curve, poor fit]"
CCC1(CC)NC(=O)N(CC(=O)OCC(=O)NC(=O)c2ccc(Cl)cc2)C1=O,inconclusive: 8.74%,
Nc1ccc(O)c(-c2nc3ccccc3s2)c1,inactive: 0.0386%,
CC(=O)c1sc(NC(=O)CCS(=O)(=O)c2ccc(C)cc2)nc1C,inconclusive: -6.43%,
O=C(CCCc1c[nH]c2ccccc12)N1CCOCC1,,"inconclusive: 20 µM [falling, single point]"
COc1cc(C)ccc1OCCOCCOc1ccccc1[N+](=O)[O-],inconclusive: 5.65%,
CC(/C=N/NC(=O)c1cccc(F)c1)=C\c1ccccc1,,"inconclusive: 35.5 µM [falling, single point]"
Cc1ccc(S(=O)(=O)N(C)CC(O)Cn2c3ccccc3c3ccccc32)cc1 (stereo not given),,"inconclusive: 29.1 µM [falling, single point]"
COc1ccc(S(=O)(=O)N2CCC(NC(=O)OCc3c(Cl)cccc3Cl)CC2)cc1,inactive: -0.57%,
CC1CCc2sc(C(=O)NNC(=S)NC3CC3)cc2C1 (stereo not given),inconclusive: 0.972%,

# As a short view, 5 of the compounds above.
SMILES,"activity change, negative = inhibition",Potency
Nc1ccc(O)c(-c2nc3ccccc3s2)c1,inactive: 0.0386%,
CC(=O)c1sc(NC(=O)CCS(=O)(=O)c2ccc(C)cc2)nc1C,inconclusive: -6.43%,
O=C(CCCc1c[nH]c2ccccc12)N1CCOCC1,,"inconclusive: 20 µM [falling, single point]"
COc1cc(C)ccc1OCCOCCOc1ccccc1[N+](=O)[O-],inconclusive: 5.65%,
CC(/C=N/NC(=O)c1cccc(F)c1)=C\c1ccccc1,,"inconclusive: 35.5 µM [falling, single point]"

# Later entries:

SMILES,"activity change, negative = inhibition",Potency
COC(=O)c1ccc(C2C(C(=O)c3ccc(C)o3)=C(O)C(=O)N2c2cc(C)on2)cc1 (stereo not given),inconclusive: -9.84%,
O=C(NCCC1CCCCN1S(=O)(=O)c1ccccc1)C(=O)Nc1ccc(F)cc1F (stereo not given),inconclusive: -12.6%,
COc1ccccc1OCCNC(=O)c1cccs1,inconclusive: 0.768%,
C#CCNC(=O)C1=C[C@@H](C2CCCCC2)C[C@@H](OCCCCO)O1,inconclusive: 1.08%,
Cc1csc(NC(=O)CCn2c(=O)sc3ccccc32)n1,,"inconclusive: 4.11 µM [rising, full curve, poor fit]"
COc1ccccc1/C=C/C=N/NC(=O)c1ccc2nc[nH]c2c1,,"inconclusive: 7.08 µM [falling, partial curve]"
Cc1ccc(S(=O)(=O)N2CCN(c3nc(C(C)C)c4c(c3C#N)CC(C)(C)OC4)CC2)cc1,inconclusive: -6.62%,
Cc1nc(N2CCCCCC2)c2ccccc2n1,inactive: 2.82%,
CN1C(=O)C(CC(=O)Nc2ccc(F)cc2)N(Cc2cccs2)C1=S (stereo not given),inconclusive: -7.02%,
NNC(=S)Nc1ccc(Cl)cc1,inconclusive: -13.8%,
COc1ccc(NC(=O)CN(c2cc(C)cc(C)c2)S(=O)(=O)c2c(C)n[nH]c2C)cc1,,"inconclusive: 0.82 µM [rising, full curve]"
COc1ccc(CN=C2NC(=O)CC(C(=O)Nc3ccc(F)cc3)S2)cc1 (stereo not given),inconclusive: -48.2%,
Cn1c(-c2ccccc2)c(/C=N/NC(=O)c2cccnc2)c2ccccc21,,"inconclusive: 7.08 µM [falling, partial curve, poor fit]"
O=C(NNc1cccc(Cl)n1)Nc1cccc(Cl)c1,,"inconclusive: 2.59 µM [falling, full curve, poor fit]"
COC(=O)c1ccc(Oc2nc(NC(C)C)nc(SC)n2)cc1,inconclusive: 1.52%,
O=C(CSc1ncnc2sccc12)NCc1ccc2c(c1)OCO2,inactive: -0.215%,
Cc1cccc(OCC(=O)NCc2n[nH]c(=O)c3ccccc23)c1,,"inconclusive: 18.4 µM [falling, partial curve]"
C/C(=N\NC(=O)c1cccs1)c1cccnc1,,"inconclusive: 20 µM [falling, single point]"
CCCCCCN(C(=O)CCCCCN1C(=O)NC(c2ccc(-c3ccccc3)cc2)C(C(=O)OCc2ccccc2)=C1C)C(C(=O)NCCCC)c1ccccn1 (stereo not given),inconclusive: -1.32%,
c1ccc2c(Nc3nnc(-c4ccncc4)s3)cccc2c1,,"inconclusive: 31.6 µM [rising, partial curve]"
COc1cc(/C=N/NC(=O)c2ccccc2)ccc1OS(=O)(=O)c1ccccc1,inconclusive: -6.42%,
O=C(Cc1ccc(F)cc1)NC1CCSC1=O (stereo not given),inconclusive: -0.278%,
O=C(CCc1ccccc1)N=C1SC2CS(=O)(=O)CC2N1c1ccccc1F (stereo not given),inconclusive: 2.94%,
COc1ccc2[nH]cc(C(=O)CN3CCN(C/C=C/c4ccccc4)CC3)c2c1,inconclusive: -9.76%,
CCOc1ccc(NC(=O)CN(C)C(=O)/C=C/c2ccco2)cc1OCC,inactive: 0.871%,
